PubChem BioAssay AID248 (DTP/NCI, 2004)
The list is a part of this screen's results and no random one: it covers a few groups of compounds. Other doses and runs of a compound may be missing. T/C is the treated group as % of the vehicle group. Some doses have a count of surviving animals in place of a T/C: the source holds a T/C of zero for them, seemingly a mark for toxic or unscored doses. Some doses without a T/C left all or most animals alive at the check, yet need not have been tolerated: the source hardly ever lists a survival T/C far under the control, and the zero likely stands for such cases as well. Survivors were counted at the toxicity check, usually on the fifth day, unless a day is given; later deaths do not show. Schedule codes are those of the source, read here as Q, the interval in days (D) or hours (H), X, the number of doses. Some schedules carry Z or #; the key to these is not given. Some entries were tested several times; the values are given in rising order. For survival time, the PubChem record calls one and a half times the control and up active, and a quarter to a half above the control has no call in these data; cut-offs in other NCI protocols can differ. Additions like (4×) give the number of equal values in this list. Some T/C values are marked as having no survivor count here; that says nothing about deaths at the dose. Some T/C values are followed by the survivors on the day toxicity was checked, most often the fifth; without a count or a note in brackets, all were alive then.

Test system: L1210 leukemia ip in BDF1 mice, survival T/C
Test: NCI In Vivo Anticancer Drug Screen. Data for tumor model L1210 Leukemia (intraperitoneal) in B6D2F1 (BDF1) mice
Details: T/C endpoint: mean survival time, higher T/C = longer survival
[1] = dose: 25.0 mg/kg/injection, schedule: Q04DX003 (ip), vehicle: saline
[2] = dose: 50.0 mg/kg/injection, schedule: Q04DX003 (ip), vehicle: saline
[3] = dose: 45.0 mg/kg/injection, schedule: Q01DX Z (ip), vehicle: methylcellulose (MC)
[4] = dose: 100.0 mg/kg/injection, schedule: Q01DX009 (ip), vehicle: saline
[5] = dose: 200.0 mg/kg/injection, schedule: Q01DX009 (ip), vehicle: saline
[6] = dose: 100.0 mg/kg/injection, schedule: Q04DX003 (ip), vehicle: saline

## ClP1(Cl)=NP(Cl)(Cl)=NP(Cl)(Cl)=N1
dose: 2.5 mg/kg/injection, schedule: Q01DX009 (ip), vehicle: Klucel (hydroxypropylcellulose) (HPC)
  T/C: 103 % of control
dose: 5.0 mg/kg/injection, schedule: Q01DX009 (ip), vehicle: Klucel (hydroxypropylcellulose) (HPC)
  T/C: 97 % of control
dose: 10.0 mg/kg/injection, schedule: Q01DX009 (ip), vehicle: Klucel (hydroxypropylcellulose) (HPC)
  T/C: 89 % of control
dose: 12.5 mg/kg/injection, schedule: Q04DX003 (ip), vehicle: saline
  T/C: 101 % of control
[1]
  T/C: 101 % of control
[2]
  T/C: 93 % of control
dose: 100.0 mg/kg/injection, schedule: Q04DX002 (ip), vehicle: Klucel (hydroxypropylcellulose) (HPC)
  survivor count: 2 of 3
dose: 100.0 mg/kg/injection, schedule: Q04DX003 (ip), vehicle: Klucel (hydroxypropylcellulose) (HPC)
  survivor count: 0 of 3
dose: 200.0 mg/kg/injection, schedule: Q04DX002 (ip), vehicle: Klucel (hydroxypropylcellulose) (HPC)
  survivor count: 1 of 3
dose: 200.0 mg/kg/injection, schedule: Q04DX003 (ip), vehicle: Klucel (hydroxypropylcellulose) (HPC)
  survivor count: 1 of 3
dose: 400.0 mg/kg/injection, schedule: Q04DX002 (ip), vehicle: Klucel (hydroxypropylcellulose) (HPC)
  survivor count: 0 of 3
dose: 400.0 mg/kg/injection, schedule: Q04DX003 (ip), vehicle: Klucel (hydroxypropylcellulose) (HPC)
  survivor count: 0 of 3

## CCN(CCCl)CC(O)C(O)C(O)C(O)C=O (stereo unspecified)
dose: 13.0 mg/kg/injection, schedule: Q01DX Z (ip), vehicle: methylcellulose (MC)
  T/C: 106 [5 of 6 alive], 117, 157 % of control
dose: 20.0 mg/kg/injection, schedule: Q01DX Z (ip), vehicle: methylcellulose (MC)
  T/C: 112, 114, 139 % of control
dose: 30.0 mg/kg/injection, schedule: Q01DX Z (ip), vehicle: methylcellulose (MC)
  T/C: 102, 110, 156 % of control
[3]
  T/C: 108 % of control
  survivor count: 4 of 6 and 5 of 6

## Cc1cc(Cl)ccc1Nc1c([N+](=O)[O-])cc([N+](=O)[O-])cc1[N+](=O)[O-]
[4]
  T/C: 94 % of control [survivor count not shown]
[5]
  T/C: 89 % of control [survivor count not shown]
dose: 400.0 mg/kg/injection, schedule: Q01DX009 (ip), vehicle: saline
  T/C: 86 % of control [survivor count not shown]

## Cc1c([N+](=O)[O-])c(C)c([N+](=O)[O-])c(C2CCCC2)c1[N+](=O)[O-]
dose: 50.0 mg/kg/injection, schedule: Q01DX009 (ip), vehicle: saline with Tween-80
  T/C: 97 % of control [survivor count not shown]
dose: 100.0 mg/kg/injection, schedule: Q01DX009 (ip), vehicle: saline with Tween-80
  T/C: 97 % of control [survivor count not shown]
dose: 200.0 mg/kg/injection, schedule: Q01DX009 (ip), vehicle: saline with Tween-80
  T/C: 101 % of control [survivor count not shown]

## CCOC(=O)NP(=O)(NC(=O)NOC)NC(=O)OCC
dose: 100.0 mg/kg/injection, schedule: Q01DX001 (ip), vehicle: saline
  T/C: 100 % of control
dose: 200.0 mg/kg/injection, schedule: Q01DX001 (ip), vehicle: saline
  T/C: 97 % of control
dose: 400.0 mg/kg/injection, schedule: Q01DX001 (ip), vehicle: saline
  T/C: 103 % of control

## COC(=O)c1ccccc1C[N+](C)(CCCl)CCCl
dose: 2.9 mg/kg/injection, schedule: Q01DX009 (ip), vehicle: saline
  T/C: 103 % of control
dose: 3.0 mg/kg/injection, schedule: Q01DX009 (ip), vehicle: saline
  T/C: 105 % of control
dose: 4.35 mg/kg/injection, schedule: Q01DX009 (ip), vehicle: saline
  T/C: 120 % of control
dose: 4.4 mg/kg/injection, schedule: Q01DX009 (ip), vehicle: saline
  T/C: 99 % of control
dose: 5.0 mg/kg/injection, schedule: Q01DX001 (ip), vehicle: carboxymethylcellulose (CMC)
  T/C: 114 % of control
dose: 6.6 mg/kg/injection, schedule: Q01DX009 (ip), vehicle: saline
  T/C: 107 (2×) and 142 % of control
dose: 6.6 mg/kg/injection, schedule: Q04DX003 (ip), vehicle: saline
  T/C: 122 and 123 % of control
dose: 10.0 mg/kg/injection, schedule: Q01DX001 (ip), vehicle: carboxymethylcellulose (CMC)
  T/C: 114 % of control
dose: 10.0 mg/kg/injection, schedule: Q01DX009 (ip), vehicle: saline
  T/C: 112, 118, 152 % of control
dose: 10.0 mg/kg/injection, schedule: Q04DX003 (ip), vehicle: saline
  T/C: 104, 111, 126 % of control
dose: 15.0 mg/kg/injection, schedule: Q01DX009 (ip), vehicle: saline
  T/C: 109 % of control
dose: 15.0 mg/kg/injection, schedule: Q04DX003 (ip), vehicle: saline
  T/C: 103 and 118 % of control
dose: 20.0 mg/kg/injection, schedule: Q04DX003 (ip), vehicle: saline
  T/C: 121 % of control

## COc1cc(NC(=O)NP(=O)(Nc2ccccc2)Nc2ccccc2)c(OC)cc1Cl
dose: 50.0 mg/kg/injection, schedule: Q01DX001 (ip), vehicle: alcohol
  T/C: 102 % of control
dose: 100.0 mg/kg/injection, schedule: Q01DX001 (ip), vehicle: alcohol
  T/C: 102 % of control
dose: 200.0 mg/kg/injection, schedule: Q01DX001 (ip), vehicle: alcohol
  T/C: 102 % of control
dose: 400.0 mg/kg/injection, schedule: Q01DX001 (ip), vehicle: alcohol
  T/C: 96 % of control

## CC(C)(C)C1COP(C)(=O)OC1 (stereo unspecified)
dose: 12.5 mg/kg/injection, schedule: Q04DX002 (ip), vehicle: saline with Tween-80
  T/C: 108 % of control [survivor count not shown]

## COP(=O)(OC)N(CCCl)CCCl
dose: 22.0 mg/kg/injection, schedule: Q04DX003 (ip), vehicle: saline
  T/C: 109 % of control
dose: 30.0 mg/kg/injection, schedule: Q04DX003 (ip), vehicle: saline
  T/C: 101 % of control
dose: 33.0 mg/kg/injection, schedule: Q04DX003 (ip), vehicle: saline
  T/C: 118 % of control
[2]
  T/C: 129 % of control
dose: 60.0 mg/kg/injection, schedule: Q04DX003 (ip), vehicle: saline
  T/C: 112 % of control
dose: 66.0 mg/kg/injection, schedule: Q04DX003 (ip), vehicle: saline
  T/C: 120 % of control
dose: 75.0 mg/kg/injection, schedule: Q01DX001 (ip), vehicle: saline
  T/C: 116 % of control
[6]
  T/C: 158 % of control
dose: 120.0 mg/kg/injection, schedule: Q04DX003 (ip), vehicle: saline
  T/C: 149 % of control
dose: 150.0 mg/kg/injection, schedule: Q01DX001 (ip), vehicle: saline
  T/C: 132 % of control
dose: 150.0 mg/kg/injection, schedule: Q04DX003 (ip), vehicle: saline
  T/C: 168 % of control
dose: 300.0 mg/kg/injection, schedule: Q01DX001 (ip), vehicle: saline
  survivor count: 2 of 6

## CCCCOP(C)(=S)OCCCC
dose: 100.0 mg/kg/injection, schedule: Q04DX002 (ip), vehicle: saline with Tween-80
  T/C: 111 % of control [survivor count not shown]
dose: 200.0 mg/kg/injection, schedule: Q04DX002 (ip), vehicle: saline with Tween-80
  T/C: 111 % of control [survivor count not shown]

## CN(C)C(=O)Oc1cccnc1
dose: 12.5 mg/kg/injection, schedule: Q01DX009 (ip), vehicle: saline
  T/C: 100 % of control
dose: 25.0 mg/kg/injection, schedule: Q01DX009 (ip), vehicle: saline
  T/C: 96 % of control
[1]
  T/C: 106 % of control
dose: 50.0 mg/kg/injection, schedule: Q01DX009 (ip), vehicle: saline
  T/C: 102 and 107 % of control
[2]
  T/C: 109 % of control
[4]
  survivor count: 3 of 6
[6]
  T/C: 96 [4 of 6 alive] and 105 % of control
[5]
  survivor count: 0 of 6
dose: 200.0 mg/kg/injection, schedule: Q04DX003 (ip), vehicle: saline
  survivor count: 0 of 6
dose: 400.0 mg/kg/injection, schedule: Q04DX003 (ip), vehicle: saline
  survivor count: 0 of 6

## NN=C(N)N.O=[N+]([O-])/N=c1\nc[nH][nH]1
dose: 100.0 mg/kg/injection, schedule: Q04DX002 (ip), vehicle: gum acacia
  T/C: 111 % of control [survivor count not shown]
dose: 200.0 mg/kg/injection, schedule: Q04DX002 (ip), vehicle: gum acacia
  T/C: 107 % of control [survivor count not shown]
dose: 400.0 mg/kg/injection, schedule: Q04DX002 (ip), vehicle: gum acacia
  T/C: 111 % of control [survivor count not shown]
